From US11353461B2, “Methods of enhancing MS detection of tagged glycans” (WATERS TECHNOLOGIES CORPORATION, priority 2016, dated 2022)

Tests used:
[1] = HILIC-MS response factors of N-glycans labeled with Compounds 1, 2 and 3 (Synapt G2-S); design: species or system murine; details: ESI+ MS
Protocol: The response factors of N-glycans (glycosylamines) labeled with Compounds 1, 2 and 3 were evaluated via HILIC separations obtained with a UHPLC chromatograph (ACQUITY UPLC H-Class Bio, Waters, Milford, Mass.). Labeled glycans from 0.4 μg glycoprotein were separated using a 2.1×50 mm column packed with 1.7 μm amide bonded organosilica (130 Å) stationary phase (ACQUITY UPLC Glycan BEH Amide 130 Å, Waters, Milford, Mass.) along with an aqueous mobile phase comprised of 50 mM ammonium formate (pH 4.4) and another of ACN. Samples were injected as 1 μL aqueous volumes and separated at 60° C. with a flow rate of 0.4 mL/min and a 35-minute gradient going from 25 to 46% aqueous mobile phase. Eluting glycans were detected by positive ion mode electrospray ionization mass spectrometry using an ion mobility capable QT of mass spectrometer (Synapt G2-S, Waters, Milford, Mass.) operating with a capillary voltage of 3.0 kV, source temperature of 120° C., desolvation temperature of 350° C., and sample cone voltage of 80 V. Mass spectra were acquired at a rate of 1 Hz with a resolution of approximately 20,000 over a range of 500-2500 m/z.

[2] = HILIC-MS response factors of N-glycans labeled with Compounds 1, 4 and 5 (Xevo G2-XS); design: species or system murine
Protocol: The response factors of N-glycans (glycosylamines) labeled with Compounds 1, 4 and 5 were evaluated via HILIC separations obtained with a UHPLC chromatograph (ACQUITY UPLC H-Class Bio, Waters, Milford, Mass.). Labeled glycans from 0.1 μg glycoprotein were separated using a 2.1×50 mm column packed with 1.7 μm amide bonded organosilica (130 Å) stationary phase (ACQUITY UPLC Glycan BEH Amide 130 Å, Waters, Milford, Mass.) along with an aqueous mobile phase comprised of 50 mM ammonium formate (pH 4.4) and another of ACN. Samples were injected as 0.2 μL aqueous volumes and separated at 60° C. with a flow rate of 0.4 mL/min and a 35-minute gradient going from 25 to 46% aqueous mobile phase. Eluting glycans were detected by positive ion mode electrospray ionization mass spectrometry using a QT of mass spectrometer (Xevo G2-XS QT of, Waters, Milford, Mass.) operating with a capillary voltage of 2.2 kV, source temperature of 120° C., desolvation temperature of 450° C., and sample cone voltage of 75 V. Mass spectra were acquired at a rate of 2 Hz with a resolution of approximately 40,000 over a range of 500-2500 m/z.

CCN(CC)CCNC(=O)c1ccc2cc(NC(=O)ON3C(=O)CCC3=O)ccc2n1 [RapiFluor-MS]
increase in MS response versus a benzamide label (from Compound 2) [1]: ~600 × | increase in MS response versus a quinoline label (from Compound 3) [1]: ~200 × | increase in MS response versus procainamide and procaine-based labels (from Compounds 4 and 5) ([2]; ESI+ MS, labeled glycans): ~2 × | average charge states of labeled glycans ([2]; FA2Ga1Sg1 N-glycan, compared with Compounds 4 and 5 (FIG. 8)): comparatively higher average charge states
